Measurements as given in article doi:10.1101/2023.12.04.570005.
These are yes or no findings as the source states them, for the method shown. In cells and extracts the contact can be indirect. Some binding calls cover weakened binding; strength is not graded here.

Chains of the proteins cited; added tags and fusions are not shown. Lines headed by an entry give the natural chain unless they say otherwise; changes in a name come on top. A line that says so, or that is headed by a name, gives the form on record, which may keep a tag or linker.
UniProt P04198: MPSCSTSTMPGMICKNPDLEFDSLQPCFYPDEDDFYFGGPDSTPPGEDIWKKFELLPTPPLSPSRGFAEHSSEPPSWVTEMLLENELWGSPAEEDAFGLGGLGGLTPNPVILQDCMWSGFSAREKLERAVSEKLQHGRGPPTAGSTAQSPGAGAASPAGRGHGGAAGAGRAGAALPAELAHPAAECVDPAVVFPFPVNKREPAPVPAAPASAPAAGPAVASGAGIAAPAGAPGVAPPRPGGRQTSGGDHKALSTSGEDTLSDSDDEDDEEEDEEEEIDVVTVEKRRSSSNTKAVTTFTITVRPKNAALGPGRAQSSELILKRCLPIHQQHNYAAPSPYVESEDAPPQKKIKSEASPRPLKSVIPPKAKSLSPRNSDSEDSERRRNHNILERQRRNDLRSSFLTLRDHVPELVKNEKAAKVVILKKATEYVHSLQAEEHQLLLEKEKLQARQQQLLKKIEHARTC
HA-MYCN 2D (P04198, form named): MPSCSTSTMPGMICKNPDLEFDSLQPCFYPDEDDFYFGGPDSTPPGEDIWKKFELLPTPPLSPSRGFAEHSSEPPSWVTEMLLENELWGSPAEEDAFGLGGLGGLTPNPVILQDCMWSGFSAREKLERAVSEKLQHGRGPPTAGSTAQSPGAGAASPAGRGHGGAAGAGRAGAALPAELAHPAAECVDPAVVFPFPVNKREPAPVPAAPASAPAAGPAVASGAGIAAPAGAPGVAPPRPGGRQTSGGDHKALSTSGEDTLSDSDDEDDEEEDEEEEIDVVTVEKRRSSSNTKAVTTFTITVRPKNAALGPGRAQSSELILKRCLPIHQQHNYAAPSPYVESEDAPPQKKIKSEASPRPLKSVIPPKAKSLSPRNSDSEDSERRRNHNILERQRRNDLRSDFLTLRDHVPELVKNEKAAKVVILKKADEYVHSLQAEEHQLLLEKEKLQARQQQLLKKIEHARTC
FLAG-MAX WT (P61244-2, form named): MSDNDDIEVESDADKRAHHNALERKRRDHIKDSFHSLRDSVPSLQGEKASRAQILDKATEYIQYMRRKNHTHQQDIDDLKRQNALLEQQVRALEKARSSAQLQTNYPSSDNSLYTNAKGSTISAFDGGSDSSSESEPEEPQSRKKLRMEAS

Assays:
HA-MYCN 2D (human) = HA-MYCN 2D (human) (UniProt P04198); assay: co-IP
HA-MYCN WT (human) = HA-MYCN WT (human) (UniProt P04198); assay: co-IP

FLAG-MAX WT (from UniProt P61244-2 1-151)
binding (HA-MYCN 2D (human)): binds
binding (HA-MYCN WT (human)): binds
